System: NCI 60 cell line panel
Experiment: NCI COMPARE analysis
Conditions: Standard COMPARE, NCI synthetic database, GI50 mean graph

SMILES | Correlation Coefficient with seed compound 33
COc1cc([C@@H]2c3cc4c(cc3[C@H](OC(C)=O)[C@H]3COC(=O)[C@@H]23)OCO4)cc(OC)c1OC [Compound 31708] | 0.80
COC(=O)c1ccc2c(c1)CCN2C(=O)c1cc2c(cc1Br)OCO2 [Compound 705323] | 0.80
COc1cc(-n2cncc2-c2ccc3ccccc3c2)cc(OC)c1OC [Compound 736992] | 0.79
O=C(N/N=C/c1ccc(Cl)cc1)c1[nH]c2ccc(Cl)cc2c1-c1ccccc1 [Compound 747379] | 0.76
COc1cccc2cc(N(C)c3nc(C)nc4c3CCC4)ccc12 [Compound 782361] | 0.78
COc1cc(OC)c(/C=C/S(=O)(=O)Cc2ccc(OC)c(N)n2)c(OC)c1 [Compound 782882] | 0.80
CCC1=C[C@H]2CN(CCc3c([nH]c4ccccc34)[C@@](C(=O)OC)(c3cc4c(cc3OC)N(C)[C@H]3[C@@](O)(C(=O)OC)[C@H](OC(C)=O)[C@]5(CC)[C@@H]6C[C@@H]6CN6CC[C@]43[C@@H]65)C2)C1 [Compound 791526] | 0.81
COc1cc([C@H](C)c2ccc3ccccc3c2)cc(OC)c1OC [Compound 791945] | 0.75
COc1ccc(C(C)c2cc(OC)c(OC)c(OC)c2)cc1 (stereo not drawn) [Compound 791946] | 0.85
COc1cc(C(C)c2ccc3c(ccn3C)c2)cc(OC)c1OC (stereo not drawn) [Compound 791947] | 0.84
CCOC(=O)c1cc(C(=O)c2cc(OC)c(OC)c(OC)c2)n2nc(C)ccc12 [Compound 792769] | 0.83
COc1ccc(C2C(c3ccccc3)C(=O)N2c2cc(OC)c(OC)c(OC)c2)cc1I (stereo not drawn) [Compound 792957] | 0.83
CCSc1ccc(C2C(Br)C(=O)N2c2cc(OC)c(OC)c(OC)c2)cc1 (stereo not drawn) [Compound 792961] | 0.76
CCOc1ccccc1C(=O)N1CCN(c2cc(Cl)cc(Cl)c2)CC1 [Compound 794223] | 0.83
CCn1cc(/C=C2\Oc3cc(OCC#N)ccc3C2=O)c2cc(OC)ccc21 [Compound 794639] | 0.76
N#CC1=C(N)Oc2c(ccc3ccccc23)C1c1cc(=O)oc2ccc(Cl)cc12 (stereo not drawn) [Compound 794655] | 0.78
Cc1ccc2c(C3C(C#N)=C(N)Oc4cc5ccccc5cc43)cc(=O)oc2c1 (stereo not drawn) [Compound 794658] | 0.76
COc1ccc(-c2noc(C(=O)O)c2-c2cc(OC)c(OC)c(OC)c2)cc1 [Compound 799732] | 0.81
